Results deposited as PubChem BioAssay AID1159584 (Peter MacCallum Cancer Centre, 2016).

- Purpose: 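Genes whose loss is lethal only together with E-cadherin loss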 (primary screen)
- System: human MCF10A breast epithelial cells, parental and CDH1-null
- Reagent: siRNA against human genes
- Measured: 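ATP luminescence (CellTiter-Glo) viability per line relative to mean mock wells over all plates, and the ratio of CDH1-null to parental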
- Reading the numbers: CDH1-null / parental viability ratio: higher = CDH1-null cells survive relatively better than parental; CDH1-null viability vs mock: higher = more viable CDH1-null cells
This is one part, drawn at random, of about 18,000 reagents tested. Not all columns of the deposit are shown. Not stated in the record: the amount of reagent, the time to read-out.

| target gene | CDH1-null / parental viability ratio | CDH1-null viability vs mock (fraction of mock) |
| --- | --- | --- |
| SLC25A29 | 0.89 | 0.82 |
| YTHDC2 | 1.12 | 0.73 |
| COA8 | 1.17 | 0.94 |
| G6PC1 | 1.47 | 1 |
| MMP13 | 1.06 | 0.89 |
| CALM2 | 0.78 | 0.77 |
| ARHGAP42 | 0.87 | 0.68 |
| KCNMB3 | 1.16 | 0.88 |
| DGKH | 0.93 | 0.86 |
| DEFB107A | 1.02 | 0.86 |

Records listed so far whose gene name starts with C or c:
| target gene | CDH1-null / parental viability ratio | CDH1-null viability vs mock (fraction of mock) |
| --- | --- | --- |
| COA8 | 1.17 | 0.94 |
| CALM2 | 0.78 | 0.77 |

Further records follow.
| target gene | CDH1-null / parental viability ratio | CDH1-null viability vs mock (fraction of mock) |
| --- | --- | --- |
| CCDC92 | 0.87 | 0.48 |
| BLID | 1.1 | 0.78 |
| TBC1D26 | 1.28 | 0.64 |
| SIGLEC12 | 0.49 | 0.32 |
| ELOA2 | 1.16 | 1.16 |
| NOX4 | 1.01 | 0.82 |
| ATP13A5 | 1.1 | 0.66 |
| CDH7 | 0.95 | 0.76 |
| PRPH | 1.01 | 1.17 |
| FASLG | 0.86 | 0.57 |
| TXNDC9 | 1.13 | 0.43 |
| BLOC1S1 | 1.07 | 0.95 |
| DNAJA2 | 0.85 | 0.74 |
| BMP15 | 0.94 | 0.5 |
| CETP | 1.13 | 1.02 |
| TRAM1 | 1.12 | 0.87 |
| GNPTAB | 1.06 | 1.02 |
| ACSL6 | 0.75 | 0.72 |
